Results deposited as PubChem BioAssay AID493246 (Drosophila RNAi Screening Center, 2011)
Aim: 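Genome-wide search for dsRNAs that reduce cell number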 (primary screen). Cells: Drosophila Kc and S2R+ cells. Reagents: long dsRNA against Drosophila genes. Measured: 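Cell number per well after knock-down, printed as raw plate values; calls were based on per-plate z-scores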. Scale: Kc cell number and S2R+ cell number: higher = more cells remaining. Active means: 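Counted as a hit if cell number falls by a z-score of at least 3 within its plate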.
The deposit covers about 21,000 reagents; this is an unselected part of those with a known target gene and a result. Over the whole deposit, 429 (2%) were called active. 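Values are raw and not normalised between plates; calls rest on per-plate z-scores that were not deposited.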 Entries without a mark were called inactive. The numbers tell different reagents against one gene apart. Names joined by + are all predicted targets of the reagent. Reagent sequences are not shown. Not stated in the record: the amount of reagent, the time to read-out.

Gene | dsRNA no. | Kc cell number, rep 1 | Kc cell number, rep 2 | S2R+ cell number, rep 1 | S2R+ cell number, rep 2
mRpL1 (GeneID 40980) | 1 | 1.68e6 | 1.84e6 | 1.10e6 | 1.28e6
sip2 (GeneID 33979) | 1 | 1.63e6 | 1.41e6 | 1.10e6 | 1.20e6
Tmtc2 (GeneID 33276) | 1 | 1.34e6 | 1.36e6 | 7.73e5 | 9.01e5
heph (GeneID 48571) | 1 | 1.50e6 | 1.81e6 | 1.04e6 | 1.15e6
heph (GeneID 48571) | 2 | 1.60e6 | 1.65e6 | 1.06e6 | 1.08e6
heph (GeneID 48571) | 3 | 1.47e6 | 1.43e6 | 9.27e5 | 8.95e5
heph (GeneID 48571) | 4 | 1.47e6 | 1.47e6 | 9.63e5 | 1.04e6
Ucp4C (GeneID 33832) | 1 | 1.55e6 | 1.40e6 | 1.08e6 | 1.25e6
CG13217 (GeneID 36180) | 1 | 1.70e6 | 1.69e6 | 1.37e6 | 1.48e6
CG13339 (GeneID 36528) | 1 | 1.55e6 | 1.59e6 | 1.28e6 | 1.42e6
Pk34A (GeneID 34705) | 1 | 1.68e6 | 1.67e6 | 1.29e6 | 1.51e6
beg (GeneID 39910) | 1 | 1.43e6 | 1.50e6 | 1.31e6 | 1.28e6
Tbc1d15-17 (GeneID 33184) | 1 | 1.29e6 | 1.34e6 | 9.77e5 | 9.74e5
CG10560 (GeneID 43065) | 1 | 1.80e6 | 1.84e6 | 1.03e6 | 1.16e6
CG14495 (GeneID 37056) | 1 | 1.50e6 | 1.53e6 | 1.16e6 | 1.25e6
CG42518 + MED9 | 1 | 1.52e6 | 1.61e6 | 1.13e6 | 1.20e6
CAH5 (GeneID 50102) | 1 | 1.48e6 | 1.56e6 | 1.12e6 | 1.24e6
ItgaPS5 (GeneID 37732) | 1 | 1.70e6 | 1.80e6 | 1.22e6 | 1.30e6
CG6429 (GeneID 36893) | 1 | 1.65e6 | 1.68e6 | 1.30e6 | 1.53e6
CadN2 + CG42830 | 1 | 1.66e6 | 1.72e6 | 1.27e6 | 1.37e6
CadN2 + CG42830 | 2 | 1.60e6 | 1.66e6 | 1.21e6 | 1.39e6
CadN2 + CG42830 | 3 | 1.58e6 | 1.60e6 | 1.24e6 | 1.42e6
ed (GeneID 33619) | 1 | 1.41e6 | 1.43e6 | 7.82e5 | 8.85e5
ed (GeneID 33619) | 2 | 1.63e6 | 1.67e6 | 1.23e6 | 1.48e6
ed (GeneID 33619) | 3 | 1.73e6 | 1.83e6 | 1.34e6 | 1.49e6
ed (GeneID 33619) | 4 | 1.64e6 | 1.63e6 | 1.15e6 | 1.42e6
Zfrp8 (GeneID 45021) | 1 | 1.53e6 | 1.58e6 | 1.30e6 | 1.40e6
Imp (GeneID 32009) | 1 | 1.27e6 | 1.67e6 | 1.23e6 | 1.26e6
Imp (GeneID 32009) | 2 | 7.02e5 | – | 9.34e5 | –
Rdl (GeneID 39054) | 1 | 1.37e6 | 1.50e6 | 1.26e6 | 1.16e6
CG8568 (GeneID 32728) | 1 | 1.55e6 | 1.61e6 | 1.07e6 | 1.28e6
CG7058 (GeneID 32873) | 1 | 1.50e6 | 1.51e6 | 1.02e6 | 1.12e6
CG14471 (retired record) (GeneID 35525) | 1 | 1.31e6 | 1.44e6 | 1.17e6 | 1.11e6
Ubr1 (GeneID 32687) | 1 | 1.58e6 | 1.60e6 | 9.99e5 | 1.14e6
CG18269 (GeneID 33785) | 1 | 1.59e6 | 1.48e6 | 1.11e6 | 1.24e6
amrt (GeneID 32342) | 1 | 1.56e6 | 1.56e6 | 9.81e5 | 1.06e6
CG3253 (GeneID 37861) | 1 | 1.48e6 | 1.55e6 | 1.11e6 | 1.12e6
CG17612 (GeneID 33639) | 1 | 1.34e6 | 1.34e6 | 1.04e6 | 1.10e6
CG31826 (GeneID 326164) | 1 | 1.72e6 | 1.68e6 | 1.35e6 | 1.47e6
Socs36E (GeneID 35085) | 1 | 1.43e6 | 1.50e6 | 9.45e5 | 1.09e6
sll (GeneID 42115) | 1 | 1.50e6 | 1.55e6 | 1.24e6 | 1.26e6
CG31145 (GeneID 42784) | 1 | 1.15e6 | 1.46e6 | 1.08e6 | 1.11e6
CG31145 (GeneID 42784) | 2 | 1.64e6 | 1.57e6 | 9.31e5 | 1.03e6
CG31145 (GeneID 42784) | 3 | 9.90e5 (active) | 1.19e6 | 5.90e5 | 7.01e5
CG31145 (GeneID 42784) | 4 | 1.69e6 | 1.64e6 | 9.01e5 | 1.01e6
tws (GeneID 47877) | 1 | 1.44e6 | 1.36e6 | 1.05e6 | 1.16e6
tws (GeneID 47877) | 2 | 1.73e6 | 1.88e6 | 1.40e6 | 1.49e6
maca (GeneID 41892) | 1 | 1.48e6 | 1.49e6 | 8.63e5 | 1.00e6
SelR (GeneID 41309) | 1 | 1.62e6 | 1.69e6 | 1.35e6 | 1.47e6
mesh (GeneID 43688) | 1 | 1.54e6 | 1.58e6 | 1.07e6 | 1.24e6
mesh (GeneID 43688) | 2 | 1.53e6 | 1.53e6 | 1.13e6 | 1.21e6
MFS16 (GeneID 37427) | 1 | 1.56e6 | 1.61e6 | 1.21e6 | 2.95e5
CG6966 (GeneID 41816) | 1 | 1.19e6 | 1.19e6 | 1.16e6 | 1.23e6
mah (GeneID 42988) | 1 | 1.81e6 | 1.71e6 | 1.03e6 | 1.19e6
CG34324 (GeneID 32302) | 1 | 1.63e6 | 1.66e6 | 1.09e6 | 1.26e6
Tdg (GeneID 43796) | 1 | 1.13e6 | 1.33e6 | 1.07e6 | 1.07e6
Tdg (GeneID 43796) | 2 | 1.40e6 | 1.44e6 | 1.00e6 | 1.10e6
Cyp4ac3 (GeneID 33756) | 1 | 1.38e6 | 1.72e6 | 8.29e5 | 3.76e5
Osi4 (GeneID 40758) | 1 | 1.58e6 | 1.61e6 | 1.29e6 | 1.49e6

Look-ups from the entries so far.
Value for Imp (GeneID 32009) #1 in “Kc cell number, rep 2”: 1.67e6
Value for CG10560 (GeneID 43065) under “Kc cell number, rep 2”: 1.84e6
Result for CAH5 (GeneID 50102) in “Kc cell number, rep 1”: 1.48e6
Under “S2R+ cell number, rep 2”, sll (GeneID 42115) shows 1.26e6
Value of heph (GeneID 48571) #2 in “S2R+ cell number, rep 2”: 1.08e6
For “Kc cell number, rep 1”, heph (GeneID 48571) #3 shows 1.47e6
